Measured values from the supplement of paper PMC12819154, “High-throughput peptide-centric local stability assay extends protein–ligand identification to membrane proteins, tissues and bacteria” (Nature Structural & Molecular Biology, 2025).
Some of the results follow. Small differences around the control level are noise.

The chains behind the UniProt entries cited, without tags or fusion partners. Where a name states a change or a piece, a line headed by the entry shows the natural chain unless it says otherwise.
UniProt Q05915: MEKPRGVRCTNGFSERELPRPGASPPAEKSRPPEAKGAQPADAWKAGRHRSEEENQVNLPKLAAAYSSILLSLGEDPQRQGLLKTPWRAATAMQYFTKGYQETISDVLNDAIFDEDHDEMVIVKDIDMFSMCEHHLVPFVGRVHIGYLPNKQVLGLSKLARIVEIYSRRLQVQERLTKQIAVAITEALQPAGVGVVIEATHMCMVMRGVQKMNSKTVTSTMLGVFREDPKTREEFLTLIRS
UniProt Q3U2I3: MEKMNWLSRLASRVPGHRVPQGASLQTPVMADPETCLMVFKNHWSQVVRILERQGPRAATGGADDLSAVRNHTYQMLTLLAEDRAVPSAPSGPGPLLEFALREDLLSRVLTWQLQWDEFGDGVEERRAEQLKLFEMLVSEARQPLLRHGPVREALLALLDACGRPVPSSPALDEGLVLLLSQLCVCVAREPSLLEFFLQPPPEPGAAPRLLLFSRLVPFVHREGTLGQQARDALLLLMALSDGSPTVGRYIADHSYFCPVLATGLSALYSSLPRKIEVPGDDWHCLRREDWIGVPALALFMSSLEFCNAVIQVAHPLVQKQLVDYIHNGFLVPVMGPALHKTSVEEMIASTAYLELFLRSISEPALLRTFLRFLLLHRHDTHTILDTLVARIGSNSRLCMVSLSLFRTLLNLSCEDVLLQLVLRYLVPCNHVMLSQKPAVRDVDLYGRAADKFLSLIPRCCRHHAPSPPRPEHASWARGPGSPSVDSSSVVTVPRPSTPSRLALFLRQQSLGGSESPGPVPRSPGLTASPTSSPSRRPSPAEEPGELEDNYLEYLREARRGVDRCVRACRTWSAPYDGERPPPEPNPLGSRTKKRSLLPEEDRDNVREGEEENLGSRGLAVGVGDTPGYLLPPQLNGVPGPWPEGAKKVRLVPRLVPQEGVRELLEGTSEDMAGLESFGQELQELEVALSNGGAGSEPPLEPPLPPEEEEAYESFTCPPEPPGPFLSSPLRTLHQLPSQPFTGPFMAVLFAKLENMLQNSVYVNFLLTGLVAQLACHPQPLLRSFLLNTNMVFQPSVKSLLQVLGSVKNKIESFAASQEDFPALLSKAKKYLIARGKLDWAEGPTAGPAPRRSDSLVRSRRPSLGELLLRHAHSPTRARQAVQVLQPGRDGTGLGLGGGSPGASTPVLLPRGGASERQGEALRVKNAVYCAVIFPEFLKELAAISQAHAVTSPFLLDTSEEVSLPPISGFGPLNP
UniProt Q3U2U7: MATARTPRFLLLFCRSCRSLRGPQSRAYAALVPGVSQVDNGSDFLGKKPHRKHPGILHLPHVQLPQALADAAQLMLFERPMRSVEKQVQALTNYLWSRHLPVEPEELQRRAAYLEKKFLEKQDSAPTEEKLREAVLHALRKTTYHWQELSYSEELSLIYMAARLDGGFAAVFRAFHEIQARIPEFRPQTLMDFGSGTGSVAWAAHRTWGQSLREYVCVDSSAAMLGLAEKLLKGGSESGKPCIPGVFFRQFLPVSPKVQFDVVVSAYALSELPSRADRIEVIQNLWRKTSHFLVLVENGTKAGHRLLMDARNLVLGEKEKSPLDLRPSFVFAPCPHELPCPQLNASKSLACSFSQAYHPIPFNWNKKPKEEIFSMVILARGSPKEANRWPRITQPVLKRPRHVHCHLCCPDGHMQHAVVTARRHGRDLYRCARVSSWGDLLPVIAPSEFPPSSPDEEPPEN
UniProt Q3TIU4: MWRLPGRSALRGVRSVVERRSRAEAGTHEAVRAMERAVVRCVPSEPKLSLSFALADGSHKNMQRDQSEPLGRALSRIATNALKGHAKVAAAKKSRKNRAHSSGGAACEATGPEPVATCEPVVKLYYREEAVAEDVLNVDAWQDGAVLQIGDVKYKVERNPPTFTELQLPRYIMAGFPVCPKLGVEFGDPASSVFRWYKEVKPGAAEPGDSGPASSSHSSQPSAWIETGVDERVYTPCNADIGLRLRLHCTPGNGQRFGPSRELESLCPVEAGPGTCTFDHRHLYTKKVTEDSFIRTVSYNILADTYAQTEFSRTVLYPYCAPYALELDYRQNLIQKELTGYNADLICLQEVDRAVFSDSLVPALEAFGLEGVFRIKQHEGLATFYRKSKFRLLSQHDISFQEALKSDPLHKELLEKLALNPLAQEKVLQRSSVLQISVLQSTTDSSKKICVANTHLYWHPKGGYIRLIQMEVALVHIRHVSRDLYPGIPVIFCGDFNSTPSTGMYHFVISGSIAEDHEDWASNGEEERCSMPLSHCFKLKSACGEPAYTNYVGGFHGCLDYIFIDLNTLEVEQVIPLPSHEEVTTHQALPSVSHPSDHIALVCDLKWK
UniProt Q03141: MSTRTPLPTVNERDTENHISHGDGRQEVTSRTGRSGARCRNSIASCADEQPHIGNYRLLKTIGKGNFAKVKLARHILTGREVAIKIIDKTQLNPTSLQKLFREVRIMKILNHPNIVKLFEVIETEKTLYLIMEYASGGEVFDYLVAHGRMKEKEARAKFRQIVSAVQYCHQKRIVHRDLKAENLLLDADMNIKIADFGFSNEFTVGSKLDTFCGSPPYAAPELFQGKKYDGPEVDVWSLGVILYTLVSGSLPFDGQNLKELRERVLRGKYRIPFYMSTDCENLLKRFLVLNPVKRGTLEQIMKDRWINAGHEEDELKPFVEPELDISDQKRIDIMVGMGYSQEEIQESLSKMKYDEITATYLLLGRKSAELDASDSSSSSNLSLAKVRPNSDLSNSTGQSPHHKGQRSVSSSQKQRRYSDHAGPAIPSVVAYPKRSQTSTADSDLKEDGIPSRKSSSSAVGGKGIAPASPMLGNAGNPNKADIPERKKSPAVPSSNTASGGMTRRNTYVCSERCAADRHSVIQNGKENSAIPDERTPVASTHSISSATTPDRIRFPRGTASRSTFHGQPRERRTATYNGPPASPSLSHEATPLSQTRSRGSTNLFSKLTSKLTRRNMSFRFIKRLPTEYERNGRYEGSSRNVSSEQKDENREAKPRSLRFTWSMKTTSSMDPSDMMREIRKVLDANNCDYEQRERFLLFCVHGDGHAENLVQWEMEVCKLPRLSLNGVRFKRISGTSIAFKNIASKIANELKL
UniProt Q0VBD2: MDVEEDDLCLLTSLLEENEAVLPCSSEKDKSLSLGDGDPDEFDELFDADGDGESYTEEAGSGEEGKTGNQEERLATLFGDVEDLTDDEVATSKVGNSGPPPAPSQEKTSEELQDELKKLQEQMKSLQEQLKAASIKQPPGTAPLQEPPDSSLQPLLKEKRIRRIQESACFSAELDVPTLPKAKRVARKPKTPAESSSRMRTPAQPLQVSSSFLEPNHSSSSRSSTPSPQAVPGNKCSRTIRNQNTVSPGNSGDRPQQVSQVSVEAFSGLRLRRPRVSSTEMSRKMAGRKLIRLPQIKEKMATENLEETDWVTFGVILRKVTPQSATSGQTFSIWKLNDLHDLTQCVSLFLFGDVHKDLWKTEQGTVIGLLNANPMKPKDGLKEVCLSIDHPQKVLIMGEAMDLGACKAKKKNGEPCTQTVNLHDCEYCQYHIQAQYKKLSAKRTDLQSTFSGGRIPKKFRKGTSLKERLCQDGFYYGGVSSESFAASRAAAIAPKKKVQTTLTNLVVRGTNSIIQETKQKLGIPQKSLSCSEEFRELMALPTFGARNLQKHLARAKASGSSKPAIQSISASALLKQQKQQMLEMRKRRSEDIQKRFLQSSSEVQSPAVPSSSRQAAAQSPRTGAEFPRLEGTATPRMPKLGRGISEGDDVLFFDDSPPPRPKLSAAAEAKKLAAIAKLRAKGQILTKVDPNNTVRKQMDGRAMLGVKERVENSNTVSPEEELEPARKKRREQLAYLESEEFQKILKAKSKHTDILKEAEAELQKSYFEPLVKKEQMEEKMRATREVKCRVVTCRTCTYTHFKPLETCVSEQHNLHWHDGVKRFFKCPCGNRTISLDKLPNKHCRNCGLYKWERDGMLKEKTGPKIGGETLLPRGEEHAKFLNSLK
UniProt Q3U1F9: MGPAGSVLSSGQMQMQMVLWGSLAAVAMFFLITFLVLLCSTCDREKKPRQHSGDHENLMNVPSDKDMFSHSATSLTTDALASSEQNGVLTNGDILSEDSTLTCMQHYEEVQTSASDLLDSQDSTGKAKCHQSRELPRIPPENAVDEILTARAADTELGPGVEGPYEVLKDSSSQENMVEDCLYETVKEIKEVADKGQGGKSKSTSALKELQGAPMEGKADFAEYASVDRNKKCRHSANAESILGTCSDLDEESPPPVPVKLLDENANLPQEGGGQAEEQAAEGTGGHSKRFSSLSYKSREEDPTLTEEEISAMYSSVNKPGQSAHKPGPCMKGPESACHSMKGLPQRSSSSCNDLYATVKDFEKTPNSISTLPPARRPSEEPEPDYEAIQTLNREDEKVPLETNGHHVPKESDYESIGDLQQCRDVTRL
UniProt Q3TDX8: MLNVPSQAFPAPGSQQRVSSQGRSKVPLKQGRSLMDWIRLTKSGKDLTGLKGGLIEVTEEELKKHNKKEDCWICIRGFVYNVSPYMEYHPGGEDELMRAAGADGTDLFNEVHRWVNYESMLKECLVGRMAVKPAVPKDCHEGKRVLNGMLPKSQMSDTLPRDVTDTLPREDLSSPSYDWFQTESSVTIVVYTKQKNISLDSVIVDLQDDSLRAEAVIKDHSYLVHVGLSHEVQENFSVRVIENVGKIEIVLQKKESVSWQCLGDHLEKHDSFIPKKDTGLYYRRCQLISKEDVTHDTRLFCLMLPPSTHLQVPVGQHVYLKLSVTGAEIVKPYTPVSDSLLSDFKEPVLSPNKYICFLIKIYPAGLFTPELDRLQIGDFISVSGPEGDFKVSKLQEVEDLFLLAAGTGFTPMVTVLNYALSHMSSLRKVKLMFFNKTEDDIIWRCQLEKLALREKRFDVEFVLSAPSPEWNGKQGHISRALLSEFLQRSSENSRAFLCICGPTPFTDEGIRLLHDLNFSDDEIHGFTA
UniProt Q0P5W1: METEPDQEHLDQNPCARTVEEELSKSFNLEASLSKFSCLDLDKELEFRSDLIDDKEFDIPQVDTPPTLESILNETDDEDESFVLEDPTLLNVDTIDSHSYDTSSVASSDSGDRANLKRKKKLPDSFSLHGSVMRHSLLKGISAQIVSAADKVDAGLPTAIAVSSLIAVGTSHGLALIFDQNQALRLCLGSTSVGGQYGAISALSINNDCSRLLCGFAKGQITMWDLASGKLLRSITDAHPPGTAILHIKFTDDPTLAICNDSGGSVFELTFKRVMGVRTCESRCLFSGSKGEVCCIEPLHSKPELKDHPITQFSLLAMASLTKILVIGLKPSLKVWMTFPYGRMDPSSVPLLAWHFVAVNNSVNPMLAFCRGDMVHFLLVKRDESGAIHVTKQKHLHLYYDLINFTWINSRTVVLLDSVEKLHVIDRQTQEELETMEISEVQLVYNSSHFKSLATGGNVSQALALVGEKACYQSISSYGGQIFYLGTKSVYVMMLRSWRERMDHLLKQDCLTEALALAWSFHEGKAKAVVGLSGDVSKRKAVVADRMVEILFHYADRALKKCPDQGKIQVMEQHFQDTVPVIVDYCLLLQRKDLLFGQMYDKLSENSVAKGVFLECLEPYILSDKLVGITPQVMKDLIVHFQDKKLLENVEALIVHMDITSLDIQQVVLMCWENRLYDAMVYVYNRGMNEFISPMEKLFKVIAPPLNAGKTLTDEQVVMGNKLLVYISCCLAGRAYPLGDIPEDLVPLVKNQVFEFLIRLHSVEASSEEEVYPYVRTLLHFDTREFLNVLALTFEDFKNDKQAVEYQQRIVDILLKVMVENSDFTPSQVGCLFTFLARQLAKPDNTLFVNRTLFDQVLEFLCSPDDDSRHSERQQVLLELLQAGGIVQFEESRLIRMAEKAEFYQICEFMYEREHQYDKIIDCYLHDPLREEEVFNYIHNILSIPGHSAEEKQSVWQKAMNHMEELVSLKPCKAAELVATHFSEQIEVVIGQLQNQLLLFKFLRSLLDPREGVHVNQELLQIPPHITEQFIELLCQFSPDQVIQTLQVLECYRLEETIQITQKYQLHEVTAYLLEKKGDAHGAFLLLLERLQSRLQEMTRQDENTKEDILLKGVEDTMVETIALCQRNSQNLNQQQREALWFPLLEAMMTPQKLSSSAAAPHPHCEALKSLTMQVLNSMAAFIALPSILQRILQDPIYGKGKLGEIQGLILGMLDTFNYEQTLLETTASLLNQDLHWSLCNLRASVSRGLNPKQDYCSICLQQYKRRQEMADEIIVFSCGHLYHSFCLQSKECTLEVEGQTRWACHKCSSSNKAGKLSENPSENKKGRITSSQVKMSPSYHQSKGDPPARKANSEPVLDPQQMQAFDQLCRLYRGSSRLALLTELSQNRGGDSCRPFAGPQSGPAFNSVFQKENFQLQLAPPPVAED

Each target was assayed with CN[C@@H]1C[C@H]2O[C@@](C)([C@@H]1OC)n1c3ccccc3c3c4c(c5c6ccccc6n2c5c31)C(=O)NC4 [staurosporine] (assay: log2 fold change of tryptic peptide abundance, ligand vs vehicle (limited proteolysis) (log2 ratio); higher = more trypsin-susceptible (destabilized)). Details: ligand concentration: 20 uM; sample: mouse liver crude lysate; replicate design: treated separately.

Row | Target | log2 fold change
1 | UniProt Q05915 (peptide sequence: TVTSTMLGVFREDPK, peptide start residue: 216) | -0.485
2 | UniProt Q3U2I3 (peptide sequence: SISEPALLR, peptide start residue: 360) | 0.451
3 | UniProt Q3U2U7 (peptide sequence: QDSAPTEEKLR, peptide start residue: 122) | -0.593
4 | UniProt Q3TCX3 (peptide sequence: FTEELPDER, peptide start residue: 462) | 0.335
5 | UniProt Q3TIU4 (peptide sequence: LALNPLAQEK, peptide start residue: 417) | 0.324
6 | UniProt Q03141 (peptide sequence: SQTSTADSDLKEDGIPSR, peptide start residue: 436) | 0.322
7 | UniProt Q0VBD2 (peptide sequence: FFKCPCGNR, peptide start residue: 823) | -0.396
8 | UniProt Q3U1F9 (peptide sequence: ADFAEYASVDR, peptide start residue: 219) | -0.138
9 | UniProt Q3TDX8 (peptide sequence: SQMSDTLPR, peptide start residue: 153) | 0.108
10 | UniProt Q02788 (peptide sequence: LFAVAPNR, peptide start residue: 202) | -0.122
11 | UniProt Q0P5W1 (peptide sequence: QDENTKEDILLK, peptide start residue: 1101) | 0.469

Some of the entries above in a different format.
UniProt Q03141 (peptide sequence: SQTSTADSDLKEDGIPSR, peptide start residue: 436)
  log2 fold change: 0.322
UniProt Q0VBD2 (peptide sequence: FFKCPCGNR, peptide start residue: 823)
  log2 fold change: -0.396
